These are yes or no findings as the source states them, for the method shown. Some results given as binding are weak or reduced against the parent protein; the word gives no strength.
Molecular target: apoferritin (UniProt P02791)
Assay: mass photometry; proteins diluted to 100 nM in 50 mM Tris pH 7.4, on a glass coverslip, recorded 60 s; three repeats; both purified

binding: binds
B1: apoferritin (complex, UniProt P02791 1-175)
chain: MSSQIRQNYSTEVEAAVNRLVNLYLRASYTYLSLGFYFDRDDVALEGVCHFFRELAEEKREGAERLLKMQNQRGGRALFQDLQKPSQDEWGTTLDAMKAAIVLEKSLNQALLDLHALGSAQADPHLCDFLESHFLDEEVKLIKKMGDHLTNIQRLVGSQAGLGEYLFERLTLKHD

From paper PMC11326647, “In vitro reconstitution reveals membrane clustering and RNA recruitment by the enteroviral AAA+ ATPase 2C” (PLOS Pathogens, 2023)
